Data published in PubChem BioAssay AID2685 (National Center for Advancing Translational Sciences (NCATS), 2010).
Some of the results follow. Shown are side measurements of this screen, not its main read-out; they come without a call. The list favours compounds with an active or inconclusive main result. The note in brackets gives the kind of curve behind each potency; many fits are weak.

Assay: qHTS Assay for Lipid Storage Modulators in Drosophila S3 Cells;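 as to cell number change: cells counted by Cell Tracker Red CMTPX staining in the red channel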
Conditions: BODIPY lipid droplet fluorescence, 18-24 h; for cell number change: measured here: cell count max response, cells fed with added oleic acid
Procedure, shortened: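 Drosophila S3 cells got compounds at several concentrations plus oleic acid (400 uM solution). Laser-scanning cytometry with 488 nm excitation read lipid droplets at 500-530 nm and cells at 575-640 nm. Percent activity was relative to 20 uM Triacsin C.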

[1] = measured here: lipid fluorescence (Fed channel) AC50, cells fed with added oleic acid
[2] = measured here: cell number channel AC50, cells fed with added oleic acid

Row | SMILES | cell number change [%] | AC50 [1] | AC50 [2]
1 | COc1ccccc1-n1c(C)cc(/C=C2/C(=N)N3C(=NC2=O)SN=C3S(C)(=O)=O)c1C | 27.7 | 3.66 µM [rising, full curve, poor fit] | 
2 | CCOc1cc(C)c(Cl)cc1S(=O)(=O)n1cnc2ccccc21 | -36.8 |  | 29.1 µM [falling, single point]
3 | CNC(=O)c1c(NC(=O)CS(=O)(=O)c2ccc(F)cc2)sc(C)c1C | 39.8 |  | 29.1 µM [rising, single point]
4 | O=C(NN1C(=O)NC2(CCCCC2)C1=O)c1ccc(-c2ccccc2Cl)o1 | -15 | 0.00517 µM [falling, full curve, poor fit] | 
5 | Cc1nc([N+](=O)[O-])cn1-c1nc2ccccn2c1[N+](=O)[O-] | 31.6 |  | 1.3 µM [rising, full curve, poor fit]
6 | O=C1OC(c2ccc3c(c2)OCO3)N(C(=O)c2ccc(Cl)c(Cl)c2)c2ccccc21 (stereo not given) | 21.3 | 2.06 µM [rising, partial curve] | 
7 | COc1ccc(C(=O)N/C(=C\c2cn(C)c3ccccc23)C(=O)NCCN2CCOCC2)cc1OC | 13.7 | 7.31 µM [falling, partial curve] | 
8 | CC(C)(CO)NC(=O)C(c1ccccc1)c1ccccc1 | -114 | 23.1 µM [falling, partial curve] | 23.1 µM [falling, partial curve]
9 | O=C(Cc1c(F)cccc1Cl)Nc1ccncc1 | -22.5 | 6.51 µM [falling, single point] | 0.731 µM [falling, full curve]
10 | CC(C)(C)NC(=O)C(c1c[nH]c2ccccc12)N(C(=O)Cn1nnc(-c2ccc(F)cc2)n1)c1cccc(O)c1 (stereo not given) | -5.62 | 32.6 µM [falling, single point] | 6.51 µM [rising, single point]
11 | Cc1ccc(NC(=O)CCC(=O)NNS(=O)(=O)c2ccccc2)cc1C | -18 | 5.17 µM [falling, partial curve] | 
12 | C=C(C)COc1ccc(-c2nc(N)ncc2-c2ccc(Cl)cc2)c(O)c1 | -66 | 29.1 µM [falling, single point] | 29.1 µM [falling, single point]
13 | Cc1cc(S(=O)(=O)NCCCN2CCOCC2)c(C)cc1Cl | 19.7 |  | 
14 | Cc1ccc(-c2nnc(SCC(=O)Nc3ccccc3N3CCOCC3)o2)cc1 | 39.6 | 0.116 µM [rising, full curve, poor fit] | 0.731 µM [rising, full curve, poor fit]
15 | O=C(NCC1CCCO1)C1c2ccccc2C(=O)N1C1CCCCCCC1 (stereo not given) | -27.6 | 29.1 µM [falling, single point] | 
16 | COc1ccc(NC(=O)N2CCCCCC2)cc1OC | 28.7 |  | 
17 | Oc1ccccc1/C=N/c1c(-c2ccco2)nc2ccccn12 | 6.23 | 5.17 µM [rising, partial curve] | 
18 | CCCCc1ccc(NC(=O)Nc2c(C)n(C)n(-c3ccccc3)c2=O)cc1 | 31 |  | 
19 | CC1CC2(C)CC(C)C1(COC(=O)Nc1ccccc1)CO2 (stereo not given) | 9.32 | 0.00461 µM [rising, full curve, poor fit] | 

Row | SMILES | cell number change [%] | AC50 [1] | AC50 [2]
20 | COc1cc(Cl)c(C)cc1NC(=O)COC(=O)/C=C/c1c(C)nn(C2CCS(=O)(=O)C2)c1Cl (stereo not given) | 4.83 | 4.11 µM [falling, single point] | 
21 | COc1ccc2c(c1)cc(C(=O)O)n2C | -9.92 | 2.91 µM [falling, partial curve] | 
22 | CCOC(=O)Cn1c(=O)cc(C)c2cccc(C)c21 | 8.46 | 2.06 µM [falling, partial curve] | 
23 | Cc1ccc(NC(=O)CSc2ccc(C(N)=O)cc2[N+](=O)[O-])cc1C | 53.1 | 35.5 µM [rising, single point] | 
24 | Nc1cc(-c2ccc(Cl)cc2)nn1S(=O)(=O)c1ccc(Cl)cc1 | 45.7 | 14.6 µM [falling, partial curve] | 4.11 µM [rising, full curve]
25 | COc1cc(C(=O)Oc2cccc(/C=N/NC(=O)c3cccnc3)c2)cc(OC)c1OC | 40.8 |  | 2.06 µM [rising, partial curve, poor fit]
26 | CC1(C)Cc2cccc(OCC(=O)OCC(=O)NCc3ccccc3)c2O1 | -10.8 |  | 
27 | Clc1ccc(-c2nnc3c4ccccc4nc(N4CCOCC4)n23)cc1Cl | -3.45 |  | 
28 | CCCCNC(=O)c1cc(-c2ccc(OC)c(OC)c2)on1 | -18.8 | 0.461 µM [rising, full curve, poor fit] | 
29 | CCCc1cc(=O)oc2cc(OCC(=O)N3CCC(C(N)=O)CC3)ccc12 | 12.5 | 29.1 µM [rising, single point] | 
30 | COC(=O)c1cc(NC(=S)NC(=O)c2ccccc2)ccc1N1CCOCC1 | 8.8 | 0.92 µM [rising, full curve, poor fit] | 1.3 µM [rising, full curve, poor fit]
31 | COCC(C)n1c(C)cc(C(=O)Cn2nc(C(=O)O)c3ccccc3c2=O)c1C (stereo not given) | 18.5 |  | 
32 | COc1ccc(NS(=O)(=O)c2ccc(C)c(C(=O)NCC(c3ccco3)N(C)C)c2)cc1 (stereo not given) | 8.94 | 6.51 µM [rising, single point] | 
33 | CCOc1ccc(NC(=O)CN(C)C(=O)CCCc2nc3ccccc3c(=O)[nH]2)cc1OCC | 28.5 | 8.2 µM [rising, partial curve, poor fit] | 
34 | CCOCCCn1c(C)nc2c(c1=O)c1nc3ccccc3nc1n2CCC1=CCCCC1 | -38.9 | 20.6 µM [rising, single point] | 29.1 µM [falling, single point]
35 | CC(C)CNC(=O)COC(=O)CCC(=O)c1ccc(F)cc1 | -14.8 | 0.231 µM [falling, full curve, poor fit] | 0.231 µM [falling, full curve]
36 | Cc1ccc(-n2c(Cn3c(C)nc4ccccc43)n[nH]c2=S)cc1 | 19.5 | 0.82 µM [rising, full curve, poor fit] | 
37 | Cc1ccc(NC(=S)N2CCC(NC(=O)c3ccc(C)cc3)CC2)cc1 | 10.3 | 29.1 µM [rising, single point] | 
38 | O=C(C/C=N\O)Nc1ccc(Oc2ccccc2)cc1 | -42.2 | 18.4 µM [falling, single point] | 

Row | SMILES | cell number change [%] | AC50 [1] | AC50 [2]
39 | CCn1c(C)cc(/C=C2\NC(=O)N(Cc3ccccc3)C2=O)c1C |  | 2.91 µM [rising, partial curve] | 0.58 µM [rising, single point]
40 | COc1ccc(-c2cc(C(=O)Nc3c(C)nn(Cc4ccccc4Cl)c3C)no2)cc1 | -1.59 | 0.231 µM [rising, full curve, poor fit] | 
41 | O=C(O)CC/C(=N\Nc1ccccc1[N+](=O)[O-])c1cccs1 | -61.3 | 0.00461 µM [rising, full curve, poor fit] | 
42 | CCC1NC(=O)c2cc(S(N)(=O)=O)c(Cl)cc2N1 (stereo not given) | -25.4 | 18.4 µM [falling, partial curve] | 
43 | CC(C)CNS(=O)(=O)c1cc(C(=O)O)c(Cl)cc1Cl | -37.7 | 18.4 µM [falling, single point] | 
44 | Cc1ccc(S(=O)(=O)Nc2cc(=O)[nH]c(SCC(=O)Nc3ccccc3Cl)n2)cc1 | 10.4 | 0.00461 µM [rising, full curve, poor fit] | 
45 | Cc1cc(NC(=O)CCSc2nc(-c3ccco3)cc(C(F)(F)F)n2)no1 | 12.6 | 1.03 µM [rising, full curve] | 
46 | CCN(CC)CCCNC(=S)N1CCN(c2nc(-c3ccccc3)cs2)CC1 | -27.5 | 5.17 µM [falling, partial curve, poor fit] | 
47 | CCOC(=O)CSc1n[nH]c(NC(=O)NC(C)C)n1 |  | 2.06 µM [falling, partial curve] | 0.461 µM [falling, full curve, poor fit]
48 | CCOC(=O)c1c(-c2ccccc2)csc1NC(=O)CSc1nnc(C)s1 | -1.23 | 2.59 µM [rising, full curve, poor fit] | 
49 | COc1ccccc1CN1CCC(CNS(=O)(=O)c2cc(-c3onc(C)c3C)ccc2OC)CC1 | 13.4 | 0.731 µM [rising, full curve] | 
50 | C=CCN(c1ccccc1Cl)S(=O)(=O)c1cccc(C(=O)OCC(=O)N(C)C2CCS(=O)(=O)C2)c1 (stereo not given) | -1.76 | 6.51 µM [falling, single point] | 
51 | Cc1cc(C(=O)CSc2ncccn2)c(C)n1Cc1ccco1 | 20 |  | 1.64 µM [rising, partial curve, poor fit]
52 | CC(C)NC(=O)c1cc2n(n1)C(C(F)(F)F)CC(c1ccco1)N2 (stereo not given) | -35.4 |  | 29.1 µM [falling, single point]
53 | O=C(/C=C/c1ccc(Cl)cc1Cl)N(Cc1ccccc1)C1CCS(=O)(=O)C1 (stereo not given) |  | 14.6 µM [rising, partial curve] | 0.731 µM [rising, full curve, poor fit]
54 | Cc1cc(C(=O)CSc2nnc(N)s2)c(C)n1CCc1ccc(Cl)cc1 | -19.4 | 0.184 µM [rising, full curve, poor fit] | 
55 | CC1(C)COC(c2cccc(C3=NC(C)(C)CO3)n2)=N1 |  | 18.4 µM [rising, single point] | 
56 | CC(C)NC(=O)COc1ccc(OCc2ccccc2)cc1 |  |  | 6.51 µM [falling, single point]
57 | CC12CC(NC(=O)N1c1cccc(C(=O)NCc3ccccc3)c1)c1ccccc1O2 (stereo not given) | -14.7 | 29.1 µM [falling, single point] | 
